Test results as given in the supplement of paper PMC7666118.
The list shows a part of the results.

Sequences of proteins named here, by UniProt entry; tags and fusion partners are left off. A change or cut given only in a name is not applied to a line headed by its entry.
UniProt Q9Y3A5: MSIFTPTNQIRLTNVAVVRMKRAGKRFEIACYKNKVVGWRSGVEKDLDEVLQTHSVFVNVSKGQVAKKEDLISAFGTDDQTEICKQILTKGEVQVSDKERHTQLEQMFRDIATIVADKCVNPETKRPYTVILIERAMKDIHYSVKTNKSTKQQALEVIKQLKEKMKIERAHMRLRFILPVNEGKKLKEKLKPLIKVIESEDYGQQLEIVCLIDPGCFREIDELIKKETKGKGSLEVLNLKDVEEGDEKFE
UniProt Q9Y2Q5, whole entry: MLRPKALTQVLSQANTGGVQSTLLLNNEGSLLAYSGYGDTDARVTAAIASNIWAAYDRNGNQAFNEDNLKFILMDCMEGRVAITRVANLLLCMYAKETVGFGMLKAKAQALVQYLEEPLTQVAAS
UniProt Q9NQL2, whole entry: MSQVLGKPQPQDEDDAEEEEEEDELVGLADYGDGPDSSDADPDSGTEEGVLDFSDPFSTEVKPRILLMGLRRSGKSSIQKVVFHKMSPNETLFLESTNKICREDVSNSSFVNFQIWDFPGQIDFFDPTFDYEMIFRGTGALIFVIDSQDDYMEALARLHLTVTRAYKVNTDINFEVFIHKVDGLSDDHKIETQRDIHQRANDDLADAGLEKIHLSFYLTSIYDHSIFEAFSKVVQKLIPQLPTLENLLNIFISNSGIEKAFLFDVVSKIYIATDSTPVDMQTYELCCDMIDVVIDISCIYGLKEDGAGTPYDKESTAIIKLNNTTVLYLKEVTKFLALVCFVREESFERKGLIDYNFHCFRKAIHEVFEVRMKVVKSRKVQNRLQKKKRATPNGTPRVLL
UniProt Q6P3W7: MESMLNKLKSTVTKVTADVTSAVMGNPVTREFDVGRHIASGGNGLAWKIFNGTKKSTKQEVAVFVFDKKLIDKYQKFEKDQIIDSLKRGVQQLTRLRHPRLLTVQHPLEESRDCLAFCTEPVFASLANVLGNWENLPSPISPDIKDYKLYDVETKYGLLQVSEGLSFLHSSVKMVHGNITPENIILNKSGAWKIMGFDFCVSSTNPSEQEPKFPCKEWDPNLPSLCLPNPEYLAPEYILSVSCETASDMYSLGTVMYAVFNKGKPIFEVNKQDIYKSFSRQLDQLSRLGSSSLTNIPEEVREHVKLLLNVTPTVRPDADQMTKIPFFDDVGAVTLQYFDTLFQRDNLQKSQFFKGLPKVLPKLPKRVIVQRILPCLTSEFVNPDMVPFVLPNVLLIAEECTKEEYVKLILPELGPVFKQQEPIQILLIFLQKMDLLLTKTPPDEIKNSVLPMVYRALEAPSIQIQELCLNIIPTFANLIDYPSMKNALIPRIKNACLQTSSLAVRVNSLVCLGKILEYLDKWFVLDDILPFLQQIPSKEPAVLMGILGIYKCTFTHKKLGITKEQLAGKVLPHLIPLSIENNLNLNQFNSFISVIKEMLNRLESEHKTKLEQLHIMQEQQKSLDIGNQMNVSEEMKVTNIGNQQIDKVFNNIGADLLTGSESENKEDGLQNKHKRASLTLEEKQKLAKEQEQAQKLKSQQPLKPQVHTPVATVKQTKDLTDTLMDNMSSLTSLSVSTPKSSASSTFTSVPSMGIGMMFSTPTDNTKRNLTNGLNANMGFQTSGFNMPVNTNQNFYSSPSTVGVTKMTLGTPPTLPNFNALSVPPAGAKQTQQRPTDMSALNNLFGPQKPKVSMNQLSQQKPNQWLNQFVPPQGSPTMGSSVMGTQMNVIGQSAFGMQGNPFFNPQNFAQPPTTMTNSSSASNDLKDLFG
UniProt P31350, whole entry: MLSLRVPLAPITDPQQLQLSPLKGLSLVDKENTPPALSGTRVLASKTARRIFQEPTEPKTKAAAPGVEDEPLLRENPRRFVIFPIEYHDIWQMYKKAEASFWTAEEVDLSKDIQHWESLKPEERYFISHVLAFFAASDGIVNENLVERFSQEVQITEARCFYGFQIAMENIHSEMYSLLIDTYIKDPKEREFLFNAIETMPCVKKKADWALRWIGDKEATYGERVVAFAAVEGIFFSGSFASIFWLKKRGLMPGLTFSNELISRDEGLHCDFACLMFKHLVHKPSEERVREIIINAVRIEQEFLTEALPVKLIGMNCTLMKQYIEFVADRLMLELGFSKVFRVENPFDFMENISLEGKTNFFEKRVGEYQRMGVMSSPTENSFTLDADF
UniProt Q9NRX5: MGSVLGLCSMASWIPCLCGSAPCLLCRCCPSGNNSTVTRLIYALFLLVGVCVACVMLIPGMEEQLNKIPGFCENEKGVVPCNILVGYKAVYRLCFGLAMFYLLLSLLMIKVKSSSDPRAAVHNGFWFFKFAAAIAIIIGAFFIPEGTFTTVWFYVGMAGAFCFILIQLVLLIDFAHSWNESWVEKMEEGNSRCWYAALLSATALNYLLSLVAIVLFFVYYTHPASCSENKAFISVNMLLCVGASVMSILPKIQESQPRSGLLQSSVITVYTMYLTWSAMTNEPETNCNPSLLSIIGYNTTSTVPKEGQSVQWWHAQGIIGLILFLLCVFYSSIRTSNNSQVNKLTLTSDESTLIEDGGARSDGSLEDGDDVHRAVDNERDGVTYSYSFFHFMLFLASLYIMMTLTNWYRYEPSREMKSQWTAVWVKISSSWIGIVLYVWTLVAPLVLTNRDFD
UniProt P23921: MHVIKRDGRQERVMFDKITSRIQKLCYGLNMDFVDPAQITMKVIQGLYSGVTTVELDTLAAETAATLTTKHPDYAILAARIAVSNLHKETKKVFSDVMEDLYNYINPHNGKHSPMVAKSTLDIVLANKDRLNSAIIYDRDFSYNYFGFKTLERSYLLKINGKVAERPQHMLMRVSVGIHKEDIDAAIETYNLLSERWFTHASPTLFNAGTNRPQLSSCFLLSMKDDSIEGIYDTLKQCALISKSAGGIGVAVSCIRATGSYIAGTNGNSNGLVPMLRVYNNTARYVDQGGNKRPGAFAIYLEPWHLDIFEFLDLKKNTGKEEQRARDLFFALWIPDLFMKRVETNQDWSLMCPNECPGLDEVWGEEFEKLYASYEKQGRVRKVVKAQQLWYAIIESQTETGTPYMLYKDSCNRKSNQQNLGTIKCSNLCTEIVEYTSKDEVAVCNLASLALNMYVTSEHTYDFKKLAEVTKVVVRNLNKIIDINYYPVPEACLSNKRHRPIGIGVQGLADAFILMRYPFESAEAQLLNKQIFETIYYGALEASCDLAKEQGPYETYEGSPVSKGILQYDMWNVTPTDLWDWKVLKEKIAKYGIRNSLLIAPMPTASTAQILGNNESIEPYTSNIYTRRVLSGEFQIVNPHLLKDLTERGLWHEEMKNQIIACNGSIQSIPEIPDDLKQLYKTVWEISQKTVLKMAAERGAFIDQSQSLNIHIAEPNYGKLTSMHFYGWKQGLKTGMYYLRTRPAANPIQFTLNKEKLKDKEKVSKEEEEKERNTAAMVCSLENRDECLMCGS
UniProt Q9H446: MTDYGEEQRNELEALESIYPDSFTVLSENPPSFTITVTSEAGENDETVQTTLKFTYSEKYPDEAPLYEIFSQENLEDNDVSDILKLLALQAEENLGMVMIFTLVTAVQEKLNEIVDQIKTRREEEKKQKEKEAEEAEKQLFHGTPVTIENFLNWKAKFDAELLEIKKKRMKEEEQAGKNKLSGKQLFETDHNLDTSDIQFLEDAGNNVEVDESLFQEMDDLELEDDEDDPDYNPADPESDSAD
UniProt A3KN83: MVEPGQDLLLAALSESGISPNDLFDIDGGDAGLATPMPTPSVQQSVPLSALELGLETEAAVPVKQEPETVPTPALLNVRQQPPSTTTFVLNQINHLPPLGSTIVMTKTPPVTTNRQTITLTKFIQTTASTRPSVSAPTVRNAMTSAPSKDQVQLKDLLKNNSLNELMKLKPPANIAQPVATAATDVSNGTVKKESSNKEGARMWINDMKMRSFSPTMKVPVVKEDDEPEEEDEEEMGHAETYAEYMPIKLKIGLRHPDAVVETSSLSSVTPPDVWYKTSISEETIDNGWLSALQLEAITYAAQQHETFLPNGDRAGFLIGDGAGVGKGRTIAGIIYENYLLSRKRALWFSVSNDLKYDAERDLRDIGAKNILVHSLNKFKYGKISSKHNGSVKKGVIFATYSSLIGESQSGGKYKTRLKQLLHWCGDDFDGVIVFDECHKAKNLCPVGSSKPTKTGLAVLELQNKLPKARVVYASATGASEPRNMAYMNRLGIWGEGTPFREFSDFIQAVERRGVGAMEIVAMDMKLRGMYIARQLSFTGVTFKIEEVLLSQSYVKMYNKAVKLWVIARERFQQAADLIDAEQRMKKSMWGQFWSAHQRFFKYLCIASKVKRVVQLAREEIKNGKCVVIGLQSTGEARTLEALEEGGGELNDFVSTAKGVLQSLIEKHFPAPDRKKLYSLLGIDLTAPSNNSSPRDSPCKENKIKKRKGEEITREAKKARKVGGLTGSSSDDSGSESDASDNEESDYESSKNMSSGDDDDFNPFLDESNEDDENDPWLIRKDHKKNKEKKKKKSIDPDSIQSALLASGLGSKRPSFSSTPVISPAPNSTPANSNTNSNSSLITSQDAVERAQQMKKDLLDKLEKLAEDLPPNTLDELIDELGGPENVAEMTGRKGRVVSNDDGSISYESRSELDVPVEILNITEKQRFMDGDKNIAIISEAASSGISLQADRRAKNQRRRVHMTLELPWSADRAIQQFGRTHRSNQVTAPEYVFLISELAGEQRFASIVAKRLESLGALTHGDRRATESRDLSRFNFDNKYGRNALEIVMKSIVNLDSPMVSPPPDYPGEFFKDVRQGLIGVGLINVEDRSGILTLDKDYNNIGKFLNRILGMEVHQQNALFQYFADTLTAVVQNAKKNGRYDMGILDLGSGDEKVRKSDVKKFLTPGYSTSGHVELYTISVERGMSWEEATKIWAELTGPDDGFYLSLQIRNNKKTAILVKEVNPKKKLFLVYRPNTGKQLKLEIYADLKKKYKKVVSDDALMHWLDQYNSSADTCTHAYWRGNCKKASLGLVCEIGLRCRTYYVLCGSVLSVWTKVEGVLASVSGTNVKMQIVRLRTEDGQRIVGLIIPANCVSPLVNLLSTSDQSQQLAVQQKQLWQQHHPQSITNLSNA
UniProt Q8NC51: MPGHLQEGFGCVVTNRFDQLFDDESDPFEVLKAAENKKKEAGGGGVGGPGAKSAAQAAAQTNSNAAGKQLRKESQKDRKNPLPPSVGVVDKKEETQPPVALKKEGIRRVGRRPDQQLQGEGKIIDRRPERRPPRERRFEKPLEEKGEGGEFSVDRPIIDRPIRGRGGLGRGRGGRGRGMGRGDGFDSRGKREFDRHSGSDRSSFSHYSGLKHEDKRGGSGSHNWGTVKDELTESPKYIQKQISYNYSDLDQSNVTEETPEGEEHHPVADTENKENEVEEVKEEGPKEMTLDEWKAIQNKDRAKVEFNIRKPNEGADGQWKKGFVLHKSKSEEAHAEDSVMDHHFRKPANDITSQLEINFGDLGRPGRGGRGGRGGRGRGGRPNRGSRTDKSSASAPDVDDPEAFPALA
UniProt Q14151: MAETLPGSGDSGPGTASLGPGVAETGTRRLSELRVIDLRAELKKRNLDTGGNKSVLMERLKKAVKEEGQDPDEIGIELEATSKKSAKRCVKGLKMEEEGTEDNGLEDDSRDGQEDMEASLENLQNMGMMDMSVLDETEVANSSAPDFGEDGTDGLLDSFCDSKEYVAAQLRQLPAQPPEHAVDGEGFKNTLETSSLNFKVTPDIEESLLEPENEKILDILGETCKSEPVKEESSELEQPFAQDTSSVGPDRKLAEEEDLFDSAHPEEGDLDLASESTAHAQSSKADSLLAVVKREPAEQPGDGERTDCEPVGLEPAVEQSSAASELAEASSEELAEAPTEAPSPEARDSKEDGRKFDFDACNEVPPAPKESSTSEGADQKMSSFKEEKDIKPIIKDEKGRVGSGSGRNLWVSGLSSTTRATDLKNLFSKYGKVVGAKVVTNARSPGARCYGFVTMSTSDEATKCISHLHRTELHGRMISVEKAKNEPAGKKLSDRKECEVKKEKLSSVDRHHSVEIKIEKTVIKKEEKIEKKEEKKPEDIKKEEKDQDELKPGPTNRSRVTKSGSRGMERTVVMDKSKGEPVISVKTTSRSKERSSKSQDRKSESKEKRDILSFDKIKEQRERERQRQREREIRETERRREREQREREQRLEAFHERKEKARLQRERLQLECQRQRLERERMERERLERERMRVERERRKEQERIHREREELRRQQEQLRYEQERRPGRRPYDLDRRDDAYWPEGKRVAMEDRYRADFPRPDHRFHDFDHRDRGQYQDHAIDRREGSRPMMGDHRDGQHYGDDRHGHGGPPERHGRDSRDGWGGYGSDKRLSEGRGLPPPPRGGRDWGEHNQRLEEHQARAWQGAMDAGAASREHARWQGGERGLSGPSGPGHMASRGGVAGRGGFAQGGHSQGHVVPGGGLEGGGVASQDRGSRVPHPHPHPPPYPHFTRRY
UniProt Q8TA86: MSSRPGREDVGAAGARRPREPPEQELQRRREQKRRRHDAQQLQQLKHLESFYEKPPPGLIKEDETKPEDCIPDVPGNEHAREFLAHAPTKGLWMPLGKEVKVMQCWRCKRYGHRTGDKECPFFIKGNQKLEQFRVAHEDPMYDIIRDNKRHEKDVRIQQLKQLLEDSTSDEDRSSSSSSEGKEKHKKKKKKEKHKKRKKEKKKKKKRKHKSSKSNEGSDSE

compound: COc1ccc(Cn2ccc3cc(C)c(C(=O)NO)cc32)cc1; test: dose-dependent thermal stabilisation call (2D-TPP, DLPTP, 10% FDR) (binary (1 = stabilised)); higher = stabilised by the compound; conditions: system: HL-60 intact cells; concentration range 0.04-10 µM
Experimental: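 2D thermal proteome profiling in intact HL-60 cells treated with BRD-3811 (0, 0.04, 0.29, 2, 10 uM) for 90 min at 37 C, then heated 3 min at one of 12 temperatures (42-63.9 C). Soluble protein was quantified by TMT10 MS. The value is the DLPTP call of the paper: dose-dependent thermal stabilisation over all temperatures at 10% FDR (F-test of a dose-response against a flat model); one experiment, one call per tested protein.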

| Target | dose-dependent thermal stabilisation call |
| --- | --- |
| SAR1A (UniProt Q9NR31) | inactive: 0 |
| SBDS (UniProt Q9Y3A5) | inactive: 0 |
| RPL13 (UniProt P26373) | active: 1 |
| RPL26 (UniProt P61254) | inactive: 0 |
| RP5-1022P6 2 | inactive: 0 |
| SDCCAG1 (UniProt O60524) | inactive: 0 |
| SELS (UniProt Q9BQE4) | inactive: 0 |
| SAMD9 (UniProt Q5K651) | inactive: 0 |
| RPS15A (UniProt P62244) | inactive: 0 |
| RPLP0-LIKE | inactive: 0 |
| RNMT (UniProt O43148) | inactive: 0 |
| RPS12 (UniProt P25398) | inactive: 0 |
| SELPLG (UniProt Q14242) | inactive: 0 |
| RPN1 (UniProt P04843) | inactive: 0 |
| ROBLD3 (UniProt Q9Y2Q5) | inactive: 0 |
| RPL5 (UniProt P46777) | inactive: 0 |
| RRAGD (UniProt Q9NQL2) | inactive: 0 |
| SCYL2 (UniProt Q6P3W7) | inactive: 0 |
| RRM2 (UniProt P31350) | inactive: 0 |
| RPS17 (UniProt P08708) | inactive: 0 |

Two neighbouring entries out of the list so far, quoted:

| Target | dose-dependent thermal stabilisation call |
| --- | --- |
| RPS12 (UniProt P25398) | inactive: 0 |
| SELPLG (UniProt Q14242) | inactive: 0 |

Carrying on.

| Target | dose-dependent thermal stabilisation call |
| --- | --- |
| RSAD1 (UniProt Q9HA92) | inactive: 0 |
| SERINC1 (UniProt Q9NRX5) | inactive: 0 |
| RRM1 (UniProt P23921) | inactive: 0 |
| RWDD1 (UniProt Q9H446) | inactive: 0 |
| SEC22B (UniProt O75396) | inactive: 0 |
| SATB2 (UniProt Q9UPW6) | inactive: 0 |
| SBNO1 (UniProt A3KN83) | inactive: 0 |
| RRBP1 (UniProt Q9P2E9) | inactive: 0 |
| SAP30 (UniProt O75446) | inactive: 0 |
| RPS2 (UniProt P15880) | inactive: 0 |
| RRN3 (UniProt Q9NYV6) | inactive: 0 |
| SERBP1 (UniProt Q8NC51) | inactive: 0 |
| RPL18 (UniProt Q07020) | active: 1 |
| RWDD2B (UniProt P57060) | inactive: 0 |
| RPL37 (UniProt P61927) | inactive: 0 |
| RPSA (UniProt P08865) | inactive: 0 |
| SAFB2 (UniProt Q14151) | inactive: 0 |
| SAMHD1 (UniProt Q9Y3Z3) | inactive: 0 |
| RP9 (UniProt Q8TA86) | inactive: 0 |
| RP3-402G11 5 | inactive: 0 |
